# Test results: BindingDB's records for doi:10.1016/S0893-133X(97)00112-7 (H. Lundbeck, 1998)
# The chains behind the UniProt entries cited, without tags or fusion partners.
# UniProt P19020, whole entry: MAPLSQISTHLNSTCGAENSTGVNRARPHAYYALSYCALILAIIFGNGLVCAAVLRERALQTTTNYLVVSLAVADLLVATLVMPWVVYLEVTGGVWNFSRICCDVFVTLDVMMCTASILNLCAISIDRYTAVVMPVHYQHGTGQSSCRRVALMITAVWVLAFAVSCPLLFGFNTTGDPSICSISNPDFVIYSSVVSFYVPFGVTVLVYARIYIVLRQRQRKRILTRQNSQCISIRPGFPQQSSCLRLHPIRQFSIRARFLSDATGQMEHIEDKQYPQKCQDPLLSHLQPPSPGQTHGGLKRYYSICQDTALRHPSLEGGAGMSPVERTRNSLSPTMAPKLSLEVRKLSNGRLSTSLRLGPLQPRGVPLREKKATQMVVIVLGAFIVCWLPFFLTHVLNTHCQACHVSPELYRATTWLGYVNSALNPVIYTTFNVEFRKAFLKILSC
# Target: D(3) dopamine receptor (Rattus norvegicus, UniProt P19020)
smiles,measurement,value
"OCCOCCN1CCN(C2=Nc3ccccc3Sc3ccccc32)CC1 [2-[2-(4-dibenzo[b,f][1,4]thiazepin-11-ylpiperazin-1-yl)ethoxy]ethanol]",Ki,180 nM
